PubChem BioAssay AID1259254 – NCATS, 2017

Screen: 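Genome-wide screen for genes that prevent DNA re-replication in cancer cells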 (primary screen)
Cells: human HCT116 colorectal cancer cells
Knock-down reagent: single siRNA against human genes
Duration: 3 days
Read-out: 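Nuclei stained with Hoechst and imaged; cell-cycle phase assigned by DNA content; G2 share scaled per plate, non-targeting siRNA 0%, GMNN siRNA 100%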
Scale: G2 robust z-score and G2 cells, % of GMNN control: higher = more G2 cells, more excess DNA replication; raw share of cells in G2: higher = larger share of cells with G2 DNA content
Active means: 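An siRNA counts as active if its G2 robust z-score lies at least 5 MADs above the screen median; here such calls match roughly 38% of GMNN control or more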
Shown is one part, drawn at random, of about 59,000 deposited reagents. About 1,550 of all reagents (2.6%) were called active. 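G2 share is only a proxy for re-replication; each gene was hit by three separate siRNAs, and active genes were retested.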 Raw values are not corrected between plates. The numbers tell different reagents against one gene apart. No sequences are given here. The record does not give: the amount of reagent.

Gene	reagent no.	G2 robust z-score	G2 cells, % of GMNN control	raw share of cells in G2 (%)	outcome
TSHB	1	4.81	36.8	21.2	inactive
TSHB	2	2.11	17.8	10.9	inactive
TSHB	3	-0.107	2.22	5.21	inactive
DUXA	1	1.41	12.9	8.98	inactive
DUXA	2	3.75	29.3	16.4	inactive
DUXA	3	2.09	17.7	13.5	inactive
C12orf76	1	-1.11	-4.87	2.77	inactive
C12orf76	2	-0.498	-0.539	3.61	inactive
C12orf76	3	-0.465	-0.307	3.39	inactive
HSD11B2	1	1.13	10.9	9	inactive
HSD11B2	2	-0.501	-0.557	5.47	inactive
HSD11B2	3	0.332	5.3	6.15	inactive
EMG1	1	-0.94	-3.64	4.11	inactive
EMG1	2	1.72	15.1	8.72	inactive
EMG1	3	0.275	4.9	8.41	inactive
CD81	1	-0.37	0.363	4.22	inactive
CD81	2	-0.0357	2.72	5.93	inactive
CD81	3	-0.751	-2.32	4.15	inactive
N4BP1	1	0.013	3.06	6.71	inactive
N4BP1	2	-0.4	0.156	4.01	inactive
N4BP1	3	3.1	24.8	12.4	inactive
ANGPTL6	1	-0.841	-2.95	3.69	inactive
ANGPTL6	2	-0.297	0.881	4.51	inactive
ANGPTL6	3	-0.981	-3.93	3.79	inactive
B4GALNT1	1	-0.124	2.1	6	inactive
B4GALNT1	2	1.13	10.9	9.42	inactive
B4GALNT1	3	3.19	25.4	12.7	inactive

Next part; the last 2 above are carried over.
Gene	reagent no.	G2 robust z-score	G2 cells, % of GMNN control	raw share of cells in G2 (%)	outcome
B4GALNT1	2	1.13	10.9	9.42	inactive
B4GALNT1	3	3.19	25.4	12.7	inactive
MISP3	1	-0.482	-0.424	1.69	inactive
MISP3	2	-0.914	-3.46	2.7	inactive
MISP3	3	0.998	9.99	6.31	inactive
SPATA25	1	0.678	7.74	5.56	inactive
SPATA25	2	-0.694	-1.91	1.89	inactive
SPATA25	3	1.08	10.6	8.17	inactive
OR51F1	1	0.666	7.65	5.64	inactive
OR51F1	2	-0.38	0.294	3.68	inactive
OR51F1	3	-0.81	-2.73	2.19	inactive
SLC2A13	1	0.66	7.61	9.21	inactive
SLC2A13	2	-0.789	-2.59	3.86	inactive
SLC2A13	3	3.07	24.6	13.8	inactive
PAM	1	-1.03	-4.31	3.57	inactive
PAM	2	0.599	7.18	5.65	inactive
PAM	3	-0.571	-1.05	4.33	inactive
ZNF831	1	-0.932	-3.59	2.82	inactive
ZNF831	2	-0.761	-2.39	2.35	inactive
ZNF831	3	1.82	15.8	8.29	inactive
TBC1D30	1	1.82	15.8	10.4	inactive
TBC1D30	2	0.601	7.19	7.06	inactive
TBC1D30	3	0.487	6.39	5.53	inactive
C1GALT1	1	-1.08	-4.64	4.4	inactive
C1GALT1	2	-0.567	-1.02	4.07	inactive
C1GALT1	3	1.11	10.8	8.84	inactive
BACC1	1	-0.93	-3.58	0.773	inactive
BACC1	2	-0.417	0.0343	4.11	inactive
BACC1	3	-0.509	-0.614	3.15	inactive
NAA60	1	0.104	3.7	5.98	inactive
NAA60	2	-0.238	1.29	4.87	inactive
NAA60	3	-0.379	0.304	2.46	inactive
PDE8A	1	-0.71	-2.03	3.69	inactive
PDE8A	2	-0.543	-0.855	3.24	inactive
PDE8A	3	-1.01	-4.1	3.46	inactive
PAK6	1	-0.804	-2.69	4.75	inactive
PAK6	2	1.48	13.4	10.1	inactive
PAK6	3	1.38	12.7	7.74	inactive
TMBIM6	1	-0.19	1.63	5.86	inactive
TMBIM6	2	-0.641	-1.54	3.28	inactive
TMBIM6	3	-0.199	1.57	3.9	inactive
MINDY3	1	1.78	15.5	10.9	inactive
MINDY3	2	0.76	8.32	7.94	inactive
MINDY3	3	-0.62	-1.39	2	inactive
